PubChem BioAssay AID720591 (Broad Institute, 2013)
Hit rate of the full screen: of about 1,200 compounds, about 60 (5%) were called active. Not shown: some 1% with an inconclusive outcome.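 Rule for the calls: active = Decreasing signal and fitted IC50 at most twice the top valid tested dose; inconclusive = Bad fit or a level curve showing 30 to 70% inhibition; inactive = the rest.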 The list shows a part of the results. Entries with a potency or affinity are not part of this list.

By UniProt entry, the sequences of proteins in these tests, tags left out. Where a name states a change or a piece, a line headed by the entry shows the natural chain unless it says otherwise.
UniProt Q9NXA8: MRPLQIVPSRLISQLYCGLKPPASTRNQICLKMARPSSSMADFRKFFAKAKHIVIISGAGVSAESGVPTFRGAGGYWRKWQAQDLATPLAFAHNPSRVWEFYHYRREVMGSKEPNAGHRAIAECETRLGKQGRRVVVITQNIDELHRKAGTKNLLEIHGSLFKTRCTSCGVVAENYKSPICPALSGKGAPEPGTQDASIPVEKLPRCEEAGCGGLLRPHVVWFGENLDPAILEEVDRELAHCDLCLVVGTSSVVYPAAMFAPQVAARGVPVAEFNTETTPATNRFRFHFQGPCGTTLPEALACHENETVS

Target: NAD-dependent protein deacylase sirtuin-5, mitochondrial (Homo sapiens) (UniProt Q9NXA8)
Experiment: SIRT5 desuccinylase inhibitors, dose response, biochemical, fluorescence imaging, cherry-pick, set 5 (AID 720591);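 note: 0% = median of neutral control wells and -100% = median of positive control wells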
Conditions: Purified SirT5, succinyl-peptide AMC, trypsin-coupled fluorescence; at 15 µM (top of the series) unless noted

Activity change, negative = inhibition, inactive:
Cc1c(Cl)cccc1NC(=O)Cc1cccs1 1.68%
COc1ccc(S(=O)(=O)NCCc2c[nH]c3ccccc23)cc1OC 8.46%
Cc1cccc(NC(=O)Cn2nnc(-c3cccs3)n2)c1C 2.31%
Cc1cccc(C)c1NC(=O)C1=C(O)c2sccc2N(C)S1(=O)=O 30.5%
CN(C)C(=O)c1ccc(NC(=O)c2sccc2-c2ccccc2)cc1 12.8%
COc1cc2[nH]c(=O)n(CCCCCC(=O)N3CCN(c4ccccn4)CC3)c(=O)c2cc1OC -9.83%
Cc1cccc(-c2noc(CN(C)C(=O)c3ccco3)n2)c1 37.3%
Cc1ccsc1C(=O)NNC(=O)CCN1CCN(c2ccccc2)CC1 -24.2%
COc1cccc(OC)c1OCCN1CCCC1 -30.8%
COc1cccc(C2CC(c3ccc(Br)cc3)=NN2C(=O)c2ccncc2)c1OC (stereo not drawn) -5.7%
O=C(NC1CC1)C1CCN(C2CCN(C(=O)CC3=CCCCC3)CC2)CC1 12.9%
CC(=O)N1N=C(c2cccc(NS(C)(=O)=O)c2)CC1c1cccs1 (stereo not drawn) -25.8%
COc1ccc(C)cc1S(=O)(=O)n1ccnc1C 0.337%
CCOc1ccc2nc(NC(=O)CS(=O)(=O)c3ccc(C)cc3)sc2c1 -22.3%
Cc1cccc(Cn2c(N(C)Cc3ccccc3)nc3c2c(=O)[nH]c(=O)n3C)c1 -16.1%
CC1=C(C(=O)N(C(C)C)C(C)C)CC(CC(=O)NCCCN(C)C)C(=O)N1CCC1=CCCCC1 (stereo not drawn) 23.7%
O=C(CN1CCC(c2nc3ccccc3s2)CC1)N1CCCCC1 -27.1%
CCCn1c(SCC(=O)N2CCCC(C)C2)nnc1-c1ccccn1 (stereo not drawn) -27.2%
COc1ccc(C(C)=O)cc1CSc1nnc(Nc2c(C)cccc2C)s1 1.82%
CCN(CC(=O)Nc1ccc(NC(C)=O)cc1)C(=O)c1ccc(COc2ccc(C(C)(C)C)cc2)cc1 -1.48%
Cc1ccc(S(=O)(=O)c2nc(Cc3ccccc3)oc2N2CCOCC2)cc1 -13.3%
O=S1(=O)CC(N2CCC(c3ccccc3)CC2)CN1Cc1ccccc1 (stereo not drawn) 13.4%
CC(C)(C)OC(=O)NOCC(=O)N(CC(=O)c1ccccc1)Cc1ccccc1 -25.6%
Cc1cc(OCc2nnc(SC(C)C(=O)O)n2Cc2ccccc2)ccc1Cl (stereo not drawn) -29.3%
Cc1ccc(CNC(=O)C2CCCN(c3cnccn3)C2)cc1 (stereo not drawn) -15.6%
O=C(Nc1nccs1)c1cc2cc(Cl)ccc2oc1=O -11.3%
Cn1cc(Br)c(C(=O)Nc2c(F)c(F)c(F)c(F)c2F)n1 -22.1%
C[C@H](NC(=O)OCc1ccccc1)C(=O)NNC(=O)[C@H](C)NC(=O)OCc1ccccc1 -29.1%
CCOc1ccc2ccccc2c1C(=O)N1CCN(c2ccccc2)CC1 -3.77%
O=C(O)c1ccc2nc(-c3ccco3)c(-c3ccco3)nc2c1 -0.798%
Nc1cccc(-c2csc(-n3ncc(C(=O)O)c3C(F)(F)F)n2)c1 -36.1%
CC1CCCCN1CCCNC(=O)Cn1c(=O)c2cccn2c2ccccc21 (stereo not drawn) 13.2%
Cc1cc2c(c(=O)o1)C(CCC1CCCCC1)C(C#N)=C(N)O2 (stereo not drawn) 17%
Cc1ccc(S(=O)(=O)N(Cc2cc3ccccc3[nH]c2=O)CC2CCCO2)cc1 (stereo not drawn) -3.13%
COc1ccc(C2=Nn3c(nnc3-c3ccccc3F)SC2)cc1OC1CCCC1 -13%
Cc1ccc(-c2noc(CN(C)C(=O)c3ccc(Br)o3)n2)cc1 -17.4%
CCN(CC)CCNC(=O)CCN1N=C(c2ccccc2)CCC1=O -13.5%
O=C(CN1C(=O)COc2ccccc21)NNC(=O)Nc1ccccc1F -3.38%
COc1ccc(-c2ccccc2)cc1NC(=O)C1(C)CCN1C(=O)C(C)C (stereo not drawn) 6.61%
CCOC(=O)c1cnc2ccc(OCC)cc2c1NCCCN1CCOCC1 11.5%
Cc1ccc(C(C(=O)NC2CCCC2)N(C(=O)c2csnn2)c2ccccc2)o1 (stereo not drawn) 7.81%
COC(=O)C1=C(C)Nc2c(c(=O)n(C)c(=O)n2C)C1c1cccc(O)c1 (stereo not drawn) 9.11%
CC1CCN(C(=O)C2CCC(=O)N(Cc3ccc(Cl)cc3)C2)CC1 (stereo not drawn) -10.3%
C[C@H](CCC(=O)OCc1cn(CC(=O)c2ccc(O)cc2)nn1)C1CC[C@H]2[C@@H]3CC[C@@H]4C[C@H](O)CC[C@]4(C)[C@H]3C[C@H](O)[C@]12C (stereo partly drawn) -22%
COc1ccccc1CNC(=O)C(NS(=O)(=O)c1cccc2nsnc12)C(C)C (stereo not drawn) 0.141%
CC(C)(C)n1nnnc1C(c1cccnc1)N1CCOCC1 (stereo not drawn) -20.8%
Cc1ccc(S(=O)(=O)Nc2ccc(Nc3ccccc3)cc2)cc1 6.43%
CCCCCCCCN1[C@@H](CC(=O)O)c2cc(C(F)(F)F)ccc2S1(=O)=O -14.3%
Cc1ccc(Oc2ccc(Cl)cc2N)cc1 -1.7%
c1ccc(NCc2cccc3ccccc23)nc1 -4.07%
COc1ccccc1S(=O)(=O)N1CCN(S(=O)(=O)c2ccccc2C#N)CC1 22%
CCCCc1c(C)nc2ccc(Br)cc2c1SCCC#N -27.5%
O=C(CCN1C(=O)C2C3C=CC(C3)C2C1=O)Oc1ccc2ccccc2c1 (stereo not drawn) 16%
NC(=O)c1ccc(NC(=O)CCCc2nc(-c3ccccc3Cl)no2)cc1 -28.1%
CC(C)CC1C(=O)N(Cc2cn(CC3CCCCC3)nn2)CCS(=O)(=O)N1Cc1ccc(-c2ccc(Cl)c(Cl)c2)cc1 (stereo not drawn) -27.8%
COc1cccc(C(=O)Nc2ccc(C(F)(F)F)n(C)c2=O)c1 -5.85%
CCOC(=O)c1c(C)[nH]c(C)c1C(=O)COC(=O)c1cc2ccccc2cc1O 7.04%
O=C(Nc1ccnn1C1CCN(C2CCCC2)CC1)c1ccccc1Cl -23.2%

Retrieved by structure from the entries so far (3):
Activity change, negative = inhibition, inactive:
CC(=O)N1N=C(c2cccc(NS(C)(=O)=O)c2)CC1c1cccs1 (stereo not drawn) -25.8%
Cc1ccc(-c2noc(CN(C)C(=O)c3ccc(Br)o3)n2)cc1 -17.4%
CCCCCCCCN1[C@@H](CC(=O)O)c2cc(C(F)(F)F)ccc2S1(=O)=O -14.3%
